Assay: Body weight during the three-year prophylaxis study
Format: in vivo, Patienten
Details: 2 X 3 mg tgl., Idealgewicht: Größe (cm)-100-15%
Text: Es wurden 122 übergewichtigte Personen ausgesucht, die im Mittel 25 % Übergewicht und eine gestörte orale Glukosetoleranz hatten. Diese Patienten gaben nach Aufklärung ihr Einverständnis an dieser Studie über 3 Jahre teilzunehmen. Sie hatten bereits 5 bis 10 Versuche einer Gewichtsabnahme hinter sich, die alle erfolglos verlaufen waren. Ein Diabetes mellitus war nach der Definition des World Health Organization-Reports (Techn. Rep. Ser. 646, 1-80, 1980), bei diesen Patieten ausgeschlossen. Sie wurden in zwei gleich starke Gruppen eingeteilt, so daß nach Alter, Ausmaß der Störung des Glucose-Toleranz-Tests (OGTT) und Größe und Dauer des Übergewichts kein Unterschied bestand. Die Patienten wurden in halbjährlichen Abständen ambulant kontrolliert. Wie zu Beginn, wurden bei diesen Kontrollen folgende Blutwerte gemessen: Blutsenkung, Blutbild, Nüchternblutzucker, OGTT, Gewicht, Cholesterin und Triglyzeride, Serum Glutamat-Oxalat-Transaminase (SGOT), Serum Glutamat-Pyruvat Transaminase (SGPT). Damit wurden den Stoffwechesl beeinträchtigende Krankheiten ausgeschlossen.
Sie erste Gruppe erhielt 2 x 3 mg Captopril täglich, die zweite entsprechend Placebo. Die Patienten hatten die Auflage, keine den Stoffwech l beeinträchtigende Medikamente, z.B. Diuretika, β-Blocker ode dergleichen einzunehmen. In beiden Gruppen schieden über den Zeitraum von 3 Jahren 28 Patienten aus verschiede nen Gründen aus. Die Gruppen veränderten sich dadurch jedoch nicht so, daß sie statistisch nicht mehr auswertbar waren.

Structure (SMILES): C[C@H](CS)C(=O)N1CCC[C@H]1C(=O)O [Captopril, 1-[(2S)-3-Mercapto-2-methylpropionyl]-L-prolin]
- Gewicht (in % des Idealgewichts) (ZEITRAUM 1985 -1 (start)): 126,0 ± 1,1 % des Idealgewichts
- Gewicht (in % des Idealgewichts) (ZEITRAUM 1986 - 2): 124,1 ± 1,6 % des Idealgewichts
- Gewicht (in % des Idealgewichts) (ZEITRAUM 1987 - 2): 125,2 ± 1,1 % des Idealgewichts
- Gewicht (in % des Idealgewichts) (ZEITRAUM 1988 - 1): 125,5 ± 1,6 % des Idealgewichts

— patent publication EP0331014A2, “Use of ACE inhibitors in diabetes prophylaxis” (THERA - Patent Verwaltungs-GmbH, priority 1988, dated 1989)
